We go through two substances from PMC7255043.

Amino acid sequences for entries named in this document (tags omitted).
UniProt Q9NYV4: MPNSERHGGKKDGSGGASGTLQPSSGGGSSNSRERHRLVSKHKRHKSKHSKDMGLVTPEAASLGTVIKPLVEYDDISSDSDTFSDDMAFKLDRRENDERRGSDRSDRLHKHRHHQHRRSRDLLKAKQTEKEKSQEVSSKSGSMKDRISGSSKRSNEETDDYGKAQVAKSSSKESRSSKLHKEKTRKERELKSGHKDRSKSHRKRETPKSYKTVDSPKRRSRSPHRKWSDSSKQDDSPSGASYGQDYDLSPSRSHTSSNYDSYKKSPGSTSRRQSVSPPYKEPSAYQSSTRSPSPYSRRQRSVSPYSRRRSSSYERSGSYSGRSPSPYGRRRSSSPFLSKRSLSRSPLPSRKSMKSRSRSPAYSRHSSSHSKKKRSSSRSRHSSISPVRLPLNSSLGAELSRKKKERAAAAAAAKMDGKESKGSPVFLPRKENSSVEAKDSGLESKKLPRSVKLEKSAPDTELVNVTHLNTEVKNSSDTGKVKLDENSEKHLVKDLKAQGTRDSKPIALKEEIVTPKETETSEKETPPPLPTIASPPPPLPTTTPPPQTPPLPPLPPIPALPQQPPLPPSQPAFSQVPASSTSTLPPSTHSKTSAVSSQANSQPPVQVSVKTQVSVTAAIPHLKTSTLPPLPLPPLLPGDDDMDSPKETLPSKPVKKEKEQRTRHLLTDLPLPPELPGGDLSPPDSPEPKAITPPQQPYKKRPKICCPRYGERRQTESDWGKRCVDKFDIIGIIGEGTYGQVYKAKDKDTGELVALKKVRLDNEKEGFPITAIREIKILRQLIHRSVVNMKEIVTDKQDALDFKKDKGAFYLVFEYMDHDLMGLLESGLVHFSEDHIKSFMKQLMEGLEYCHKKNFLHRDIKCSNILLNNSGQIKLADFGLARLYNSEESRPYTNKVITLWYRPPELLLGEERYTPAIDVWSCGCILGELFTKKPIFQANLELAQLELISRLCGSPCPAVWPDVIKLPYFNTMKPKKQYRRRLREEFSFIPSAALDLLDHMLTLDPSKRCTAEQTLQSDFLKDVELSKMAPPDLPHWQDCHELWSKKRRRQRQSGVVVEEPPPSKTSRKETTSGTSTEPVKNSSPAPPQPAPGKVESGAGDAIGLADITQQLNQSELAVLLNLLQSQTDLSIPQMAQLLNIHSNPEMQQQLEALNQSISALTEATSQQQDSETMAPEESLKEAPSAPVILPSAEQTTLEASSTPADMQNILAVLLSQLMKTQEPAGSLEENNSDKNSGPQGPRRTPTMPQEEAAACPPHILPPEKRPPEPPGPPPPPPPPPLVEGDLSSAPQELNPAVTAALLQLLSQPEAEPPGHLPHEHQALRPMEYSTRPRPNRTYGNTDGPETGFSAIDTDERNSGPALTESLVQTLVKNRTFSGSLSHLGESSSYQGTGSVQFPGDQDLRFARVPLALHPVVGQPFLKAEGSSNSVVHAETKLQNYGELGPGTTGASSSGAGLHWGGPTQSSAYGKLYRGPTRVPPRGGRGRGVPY
UniProt Q13177: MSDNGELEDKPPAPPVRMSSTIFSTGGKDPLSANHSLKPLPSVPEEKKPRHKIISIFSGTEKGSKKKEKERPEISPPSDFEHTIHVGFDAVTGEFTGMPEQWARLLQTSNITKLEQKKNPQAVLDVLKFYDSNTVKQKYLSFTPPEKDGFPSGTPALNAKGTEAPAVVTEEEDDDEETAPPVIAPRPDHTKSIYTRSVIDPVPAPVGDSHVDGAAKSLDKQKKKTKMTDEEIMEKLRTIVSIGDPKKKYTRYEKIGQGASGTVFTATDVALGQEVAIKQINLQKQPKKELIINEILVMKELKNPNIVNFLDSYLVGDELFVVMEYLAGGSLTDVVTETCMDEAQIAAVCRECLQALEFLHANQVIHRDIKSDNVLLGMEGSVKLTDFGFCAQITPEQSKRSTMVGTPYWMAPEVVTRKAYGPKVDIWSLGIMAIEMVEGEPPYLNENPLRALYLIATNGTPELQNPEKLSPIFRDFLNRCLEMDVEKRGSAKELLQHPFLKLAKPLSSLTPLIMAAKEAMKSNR

In one experiment the target is recombinant CDK12 (UniProt Q9NYV4). Briefly: co-IP; recombinant CDK12 and PAK2 proteins immunoprecipitated with IgG or anti-CDK12/anti-PAK2 antibodies; western blot (in vitro); both purified. A general note: Immunoblotting shows a protein as a band on a membrane.
The target in experiment [1] is cyclin-dependent kinase 12 (human (endogenous in SNU-1)) (UniProt Q9NYV4). Briefly: co-IP; SNU-1 cell lysates incubated with normal IgG, anti-CDK12 or anti-PAK2 antibody, 4 °C overnight; protein A/G agarose beads 2 h; PAK2 or CDK12 detected by western blot.

Results are given in words; binding and its absence hold for the method and conditions named. For some assays here: Binding seen in cells or lysates may run through a third protein. Some binding calls cover weakened binding; strength is not graded here.

In the case of “recombinant PAK2 (from UniProt Q13177 1-524) (enzyme)”, the binding entry in the experiment with recombinant CDK12 is recorded as “binds”.

In the case of “p21 activated kinase 2 (from UniProt Q13177 1-524)”, in experiment [1], the binding entry is “binds”.
